According to the supplement of paper PMC10849652:
This is one part of the list.

Sequences of proteins named here, by UniProt entry; tags and fusion partners are left off. A change or cut given only in a name is not applied to a line headed by its entry.
UniProt Q14684: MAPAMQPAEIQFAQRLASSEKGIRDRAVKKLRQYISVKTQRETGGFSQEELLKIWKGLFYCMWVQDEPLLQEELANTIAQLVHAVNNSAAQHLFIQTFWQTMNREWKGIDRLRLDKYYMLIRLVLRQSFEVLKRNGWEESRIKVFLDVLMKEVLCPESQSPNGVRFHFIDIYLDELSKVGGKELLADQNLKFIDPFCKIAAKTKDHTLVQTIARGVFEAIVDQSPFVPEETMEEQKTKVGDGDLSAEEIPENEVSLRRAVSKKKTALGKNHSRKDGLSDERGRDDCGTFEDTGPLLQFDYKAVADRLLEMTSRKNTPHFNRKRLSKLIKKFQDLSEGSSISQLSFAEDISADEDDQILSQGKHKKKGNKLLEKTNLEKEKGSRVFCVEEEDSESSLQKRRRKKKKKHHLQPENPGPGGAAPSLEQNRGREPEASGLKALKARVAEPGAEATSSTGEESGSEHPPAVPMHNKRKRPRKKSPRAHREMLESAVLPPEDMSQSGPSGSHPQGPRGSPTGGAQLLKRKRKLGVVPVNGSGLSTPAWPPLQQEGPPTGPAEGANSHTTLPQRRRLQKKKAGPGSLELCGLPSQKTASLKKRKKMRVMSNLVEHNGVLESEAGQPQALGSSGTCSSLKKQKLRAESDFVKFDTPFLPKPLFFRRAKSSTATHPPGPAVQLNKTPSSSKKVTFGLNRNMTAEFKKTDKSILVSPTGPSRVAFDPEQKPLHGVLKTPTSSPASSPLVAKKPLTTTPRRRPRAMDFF
UniProt Q01196, whole entry, looked up: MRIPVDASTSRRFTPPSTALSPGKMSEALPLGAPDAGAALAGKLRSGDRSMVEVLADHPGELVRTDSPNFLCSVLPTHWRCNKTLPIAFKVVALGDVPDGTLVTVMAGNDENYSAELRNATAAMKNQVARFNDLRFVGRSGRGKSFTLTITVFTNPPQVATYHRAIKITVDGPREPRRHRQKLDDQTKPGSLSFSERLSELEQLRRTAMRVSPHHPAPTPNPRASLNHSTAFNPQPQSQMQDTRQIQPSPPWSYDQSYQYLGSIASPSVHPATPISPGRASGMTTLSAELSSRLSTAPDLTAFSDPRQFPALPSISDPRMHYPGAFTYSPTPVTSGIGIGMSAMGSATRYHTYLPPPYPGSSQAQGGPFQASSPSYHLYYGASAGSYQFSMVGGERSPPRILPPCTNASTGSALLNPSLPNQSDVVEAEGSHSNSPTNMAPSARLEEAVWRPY
UniProt Q9Y224: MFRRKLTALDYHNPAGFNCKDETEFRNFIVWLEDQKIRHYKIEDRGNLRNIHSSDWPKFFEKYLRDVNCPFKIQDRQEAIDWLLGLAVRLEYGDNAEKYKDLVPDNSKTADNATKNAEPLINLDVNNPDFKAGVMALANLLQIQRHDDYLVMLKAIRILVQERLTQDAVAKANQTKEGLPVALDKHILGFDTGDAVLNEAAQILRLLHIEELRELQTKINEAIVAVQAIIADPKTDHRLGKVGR
UniProt Q9P2E9: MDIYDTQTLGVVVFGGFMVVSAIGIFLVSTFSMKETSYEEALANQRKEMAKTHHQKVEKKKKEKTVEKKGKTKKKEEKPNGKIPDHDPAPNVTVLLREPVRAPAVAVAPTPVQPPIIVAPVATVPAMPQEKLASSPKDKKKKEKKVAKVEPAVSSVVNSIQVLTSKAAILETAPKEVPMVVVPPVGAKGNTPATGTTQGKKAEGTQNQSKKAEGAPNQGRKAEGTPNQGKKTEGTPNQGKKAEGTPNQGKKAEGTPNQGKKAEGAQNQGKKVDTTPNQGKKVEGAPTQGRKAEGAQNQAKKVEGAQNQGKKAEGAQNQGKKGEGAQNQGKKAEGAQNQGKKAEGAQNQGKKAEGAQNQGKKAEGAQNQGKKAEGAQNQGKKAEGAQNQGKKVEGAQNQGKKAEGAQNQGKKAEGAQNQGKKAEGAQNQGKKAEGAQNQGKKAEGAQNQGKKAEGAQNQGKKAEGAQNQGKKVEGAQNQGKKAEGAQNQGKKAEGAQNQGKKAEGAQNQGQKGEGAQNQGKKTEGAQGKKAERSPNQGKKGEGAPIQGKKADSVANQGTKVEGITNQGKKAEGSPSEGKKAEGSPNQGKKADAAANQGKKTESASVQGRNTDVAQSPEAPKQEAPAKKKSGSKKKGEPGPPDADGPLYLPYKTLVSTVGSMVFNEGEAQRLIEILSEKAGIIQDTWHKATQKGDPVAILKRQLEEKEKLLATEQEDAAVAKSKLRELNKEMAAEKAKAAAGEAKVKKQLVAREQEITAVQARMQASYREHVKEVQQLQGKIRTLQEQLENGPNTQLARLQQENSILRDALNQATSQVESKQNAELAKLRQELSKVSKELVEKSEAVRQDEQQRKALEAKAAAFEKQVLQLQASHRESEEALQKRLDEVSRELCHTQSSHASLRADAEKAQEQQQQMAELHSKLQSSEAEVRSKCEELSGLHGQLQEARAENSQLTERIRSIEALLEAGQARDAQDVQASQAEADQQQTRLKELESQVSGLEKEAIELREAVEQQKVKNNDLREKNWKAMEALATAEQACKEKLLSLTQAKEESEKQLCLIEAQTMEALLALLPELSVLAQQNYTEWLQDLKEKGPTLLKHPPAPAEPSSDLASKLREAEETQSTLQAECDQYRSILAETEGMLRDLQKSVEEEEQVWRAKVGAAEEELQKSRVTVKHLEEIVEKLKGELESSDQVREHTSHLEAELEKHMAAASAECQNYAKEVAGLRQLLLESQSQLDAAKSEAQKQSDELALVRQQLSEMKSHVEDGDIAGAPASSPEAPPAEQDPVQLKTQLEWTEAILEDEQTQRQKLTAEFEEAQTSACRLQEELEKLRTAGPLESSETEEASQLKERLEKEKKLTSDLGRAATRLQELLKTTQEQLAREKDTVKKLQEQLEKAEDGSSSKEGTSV
UniProt Q9Y265, whole entry, looked up: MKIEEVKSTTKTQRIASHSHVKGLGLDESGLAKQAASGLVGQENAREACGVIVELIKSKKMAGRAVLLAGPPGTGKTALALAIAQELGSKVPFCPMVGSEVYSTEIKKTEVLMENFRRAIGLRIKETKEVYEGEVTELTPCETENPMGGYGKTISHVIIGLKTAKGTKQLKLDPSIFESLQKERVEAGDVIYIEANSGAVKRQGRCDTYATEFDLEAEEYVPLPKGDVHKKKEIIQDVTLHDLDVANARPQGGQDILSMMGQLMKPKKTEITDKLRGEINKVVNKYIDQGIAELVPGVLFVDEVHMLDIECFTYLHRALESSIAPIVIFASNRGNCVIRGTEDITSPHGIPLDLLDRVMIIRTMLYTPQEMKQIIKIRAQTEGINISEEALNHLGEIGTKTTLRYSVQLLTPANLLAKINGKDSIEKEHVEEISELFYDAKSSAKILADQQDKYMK
UniProt Q7LG56, whole entry, looked up: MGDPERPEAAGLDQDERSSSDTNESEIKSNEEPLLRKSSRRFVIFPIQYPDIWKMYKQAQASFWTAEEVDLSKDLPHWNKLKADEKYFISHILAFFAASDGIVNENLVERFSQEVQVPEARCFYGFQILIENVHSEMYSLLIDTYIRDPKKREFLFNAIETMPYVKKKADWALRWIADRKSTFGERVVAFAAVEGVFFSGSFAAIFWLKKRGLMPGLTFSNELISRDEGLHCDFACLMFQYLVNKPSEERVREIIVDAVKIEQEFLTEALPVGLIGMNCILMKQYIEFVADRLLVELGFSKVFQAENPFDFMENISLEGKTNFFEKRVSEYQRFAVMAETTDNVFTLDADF
UniProt Q96T51: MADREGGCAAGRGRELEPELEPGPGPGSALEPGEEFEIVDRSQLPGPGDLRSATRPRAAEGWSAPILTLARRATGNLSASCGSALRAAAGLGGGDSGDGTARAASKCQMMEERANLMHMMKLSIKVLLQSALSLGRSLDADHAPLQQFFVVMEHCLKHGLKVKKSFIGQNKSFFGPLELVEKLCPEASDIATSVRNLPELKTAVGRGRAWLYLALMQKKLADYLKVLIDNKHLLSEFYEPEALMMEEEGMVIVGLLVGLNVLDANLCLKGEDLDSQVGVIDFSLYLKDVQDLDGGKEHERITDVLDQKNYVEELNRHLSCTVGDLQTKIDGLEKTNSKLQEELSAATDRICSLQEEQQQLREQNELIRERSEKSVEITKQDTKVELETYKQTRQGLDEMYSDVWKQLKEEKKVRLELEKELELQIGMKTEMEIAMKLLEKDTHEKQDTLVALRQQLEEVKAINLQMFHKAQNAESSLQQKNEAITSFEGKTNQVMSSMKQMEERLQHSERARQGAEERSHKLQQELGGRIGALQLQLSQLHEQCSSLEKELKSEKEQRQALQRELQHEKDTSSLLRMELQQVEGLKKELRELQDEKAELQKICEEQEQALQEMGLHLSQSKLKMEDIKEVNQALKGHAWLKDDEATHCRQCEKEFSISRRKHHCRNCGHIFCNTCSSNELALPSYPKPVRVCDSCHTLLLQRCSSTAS
UniProt P05386, whole entry, looked up: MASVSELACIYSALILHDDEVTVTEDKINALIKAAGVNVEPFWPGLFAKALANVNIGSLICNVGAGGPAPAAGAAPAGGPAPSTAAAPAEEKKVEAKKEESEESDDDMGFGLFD
UniProt Q8N488: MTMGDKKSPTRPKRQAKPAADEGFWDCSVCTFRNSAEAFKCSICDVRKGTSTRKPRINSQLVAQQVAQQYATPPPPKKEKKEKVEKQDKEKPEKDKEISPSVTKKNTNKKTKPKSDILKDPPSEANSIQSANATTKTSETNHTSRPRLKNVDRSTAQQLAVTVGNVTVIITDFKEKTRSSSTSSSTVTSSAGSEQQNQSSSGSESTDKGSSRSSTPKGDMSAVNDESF
UniProt Q5VZM2, whole entry, looked up: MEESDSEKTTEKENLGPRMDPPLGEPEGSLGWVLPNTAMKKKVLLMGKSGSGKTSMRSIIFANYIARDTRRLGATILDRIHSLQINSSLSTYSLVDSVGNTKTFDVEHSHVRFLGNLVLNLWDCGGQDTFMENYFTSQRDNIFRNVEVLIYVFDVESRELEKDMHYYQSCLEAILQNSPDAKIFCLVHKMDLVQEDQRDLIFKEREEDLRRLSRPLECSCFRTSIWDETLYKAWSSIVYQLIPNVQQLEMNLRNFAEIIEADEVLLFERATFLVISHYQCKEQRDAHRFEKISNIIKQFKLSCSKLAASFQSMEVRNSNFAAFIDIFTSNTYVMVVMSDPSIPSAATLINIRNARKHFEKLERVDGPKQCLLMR
UniProt O00442: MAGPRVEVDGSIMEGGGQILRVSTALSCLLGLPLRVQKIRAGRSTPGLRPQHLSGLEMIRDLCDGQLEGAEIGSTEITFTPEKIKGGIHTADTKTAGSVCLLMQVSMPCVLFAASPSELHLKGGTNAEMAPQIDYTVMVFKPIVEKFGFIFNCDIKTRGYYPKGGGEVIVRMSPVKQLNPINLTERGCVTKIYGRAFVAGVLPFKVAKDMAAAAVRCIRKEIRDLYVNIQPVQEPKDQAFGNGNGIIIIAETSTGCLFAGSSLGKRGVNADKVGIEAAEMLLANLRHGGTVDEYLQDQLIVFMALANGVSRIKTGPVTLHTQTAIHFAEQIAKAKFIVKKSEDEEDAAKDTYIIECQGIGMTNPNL
UniProt P31350, whole entry, looked up: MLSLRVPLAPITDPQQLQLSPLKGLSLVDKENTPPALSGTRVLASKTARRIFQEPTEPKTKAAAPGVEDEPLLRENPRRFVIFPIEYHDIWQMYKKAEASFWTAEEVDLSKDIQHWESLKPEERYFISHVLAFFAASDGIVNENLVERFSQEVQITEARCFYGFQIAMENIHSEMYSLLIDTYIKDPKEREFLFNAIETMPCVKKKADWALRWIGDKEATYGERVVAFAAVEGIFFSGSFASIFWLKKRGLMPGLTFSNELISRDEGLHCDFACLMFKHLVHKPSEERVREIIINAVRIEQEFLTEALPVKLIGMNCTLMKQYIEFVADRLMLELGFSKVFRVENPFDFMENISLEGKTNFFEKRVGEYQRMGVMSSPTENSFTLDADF
UniProt Q15418, whole entry, looked up: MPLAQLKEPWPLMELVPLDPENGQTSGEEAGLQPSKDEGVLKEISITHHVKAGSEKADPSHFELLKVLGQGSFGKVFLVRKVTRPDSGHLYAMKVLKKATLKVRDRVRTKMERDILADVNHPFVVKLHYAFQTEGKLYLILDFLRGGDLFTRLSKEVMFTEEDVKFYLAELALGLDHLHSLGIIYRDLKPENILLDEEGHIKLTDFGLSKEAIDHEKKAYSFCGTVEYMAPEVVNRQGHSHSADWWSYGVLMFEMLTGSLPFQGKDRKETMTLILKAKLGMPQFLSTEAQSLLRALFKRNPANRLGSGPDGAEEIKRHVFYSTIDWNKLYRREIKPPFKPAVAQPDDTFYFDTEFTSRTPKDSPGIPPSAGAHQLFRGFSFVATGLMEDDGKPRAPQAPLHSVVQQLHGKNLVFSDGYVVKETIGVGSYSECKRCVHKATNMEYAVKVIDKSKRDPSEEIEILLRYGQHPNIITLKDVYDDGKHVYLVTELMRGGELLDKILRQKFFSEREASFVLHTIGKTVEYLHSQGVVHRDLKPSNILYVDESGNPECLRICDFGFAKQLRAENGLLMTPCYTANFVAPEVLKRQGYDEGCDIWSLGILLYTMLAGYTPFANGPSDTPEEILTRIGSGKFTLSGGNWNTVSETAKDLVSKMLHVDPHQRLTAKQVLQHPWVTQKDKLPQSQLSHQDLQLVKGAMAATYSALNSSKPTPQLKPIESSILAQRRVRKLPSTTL

What was measured:
Experiment in all cases: log2 fold change, soluble protein after heating vs DMSO (PISA); higher = thermal stabilisation; K562 lysate, 10 uM; active = over 0.2 and 3.5 SD of the protein, either way, in both replicates (recomputed)
[1] = compound: C1=CC=C(C=C1)[C@H](COC2=CC3=C(C=C2)NC(=O)N3)NC(=O)C4=CC=CN(C4=O)CC5=CC(=C(C=C5)F)F
Summary of the method: (§1)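 A 30 min treatment with 10 μM compound was applied to crude K562 extract at 1 mg/mL protein in PBS pH 7.4 with 1 mM MgCl2. Heating for 3 min spanned 48°C-58°C, after which aliquots were pooled, adjusted to 0.5% NP-40 at 4°C and spun at 21,000xg for 90 min. TMTpro 16plex LC-MS/MS of the supernatant, with channel sums equalised, gave values recorded as log-two fold change in thermal stability against solvent controls, from duplicates.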

[2] = compound: CC1=C(SC2=C1C(=N[C@H](C3=NN=C(N32)C)CC(=O)N)C4=CC=C(C=C4)Cl)C
Summary of the method: as §1

[3] = compound: CC1=C2C(=CC=C1)N=C(N(C2=O)C3=CC=CC=C3C)CN4C=NC5=C(N=CN=C54)N
Summary of the method: as §1

[4] = compound: Cc1sc2c(c1C)C(c1ccc(Cl)cc1)=N[C@@H](CC(=O)OC(C)(C)C)c1nnc(C)n1-2
Summary of the method: as §1

[5] = compound: c1ccc([C@@H]2C[C@H]2NC2CCNCC2)cc1
Summary of the method: as §1

Measured: log2 fold change

RPS29 (UniProt P62273)
inactive: [1] 0.047 | [2] -0.055 | [3] -0.071 | [4] 0.328 | [5] 0.398

RRN3 (UniProt Q9NYV6)
inactive: [1] -0.171 | [2] -0.06 | [3] 0.098 | [4] -0.223 | [5] 0.027

RTN4 isoform 2 (UniProt Q9NQC3)
inactive: [1] -0.028 | [2] 0.106 | [3] 0.017 | [4] -0.043 | [5] -0.035

RRP1B (UniProt Q14684)
inactive: [1] -0.024 | [2] -0.015 | [3] 0.066 | [4] -0.013 | [5] 0.031

RPL6 (UniProt Q02878)
inactive: [1] -0.001 | [2] 0 | [3] -0.022 | [4] 0.027 | [5] 0.032

RUNX1 isoform 8 (UniProt Q01196)
inactive: [1] -0.235 | [2] -0.032 | [3] 0.024 | [4] -0.021 | [5] -0.027

RWDD1 (UniProt Q9H446)
inactive: [1] 0.045 | [2] 0.008 | [3] 0 | [4] 0.019 | [5] -0.001

RPS23 (UniProt P62266)
inactive: [1] 0.019 | [2] 0.038 | [3] -0.01 | [4] 0.053 | [5] 0.057

RRAGA (UniProt Q7L523)
inactive: [1] 0.024 | [2] -0.039 | [3] 0.01 | [4] -0.045 | [5] -0.036

RPSA (UniProt P08865)
inactive: [1] 0.009 | [2] 0.022 | [3] 0.008 | [4] 0.064 | [5] 0.023

RRAGC (UniProt Q9HB90)
inactive: [1] -0.001 | [2] 0.032 | [3] 0.004 | [4] -0.001 | [5] 0.026

RRP7A (UniProt Q9Y3A4)
inactive: [1] 0.072 | [2] -0.032 | [3] 0.01 | [4] 0.143 | [5] -0.012

RPP38 (UniProt P78345)
inactive: [1] 0.026 | [2] -0.001 | [3] 0.014 | [4] -0.016 | [5] -0.048

RTRAF (UniProt Q9Y224)
inactive: [1] -0.009 | [2] -0.103 | [3] 0.019 | [4] -0.003 | [5] -0.014

RPP25 (UniProt Q9BUL9)
inactive: [1] 0.09 | [2] -0.1 | [3] 0.142 | [4] 0.106 | [5] 0.013

RPS10 (UniProt P46783)
inactive: [1] 0.053 | [2] -0.001 | [3] 0.039 | [4] 0.016 | [5] 0.001

RPS14 (UniProt P62263)
inactive: [1] 0.018 | [2] 0.003 | [3] 0.042 | [4] 0.003 | [5] -0.019

RPP40 (UniProt O75818)
inactive: [1] -0.017 | [2] -0.021 | [3] -0.011 | [4] 0.056 | [5] 0.038

RTL10 (UniProt Q7L3V2)
inactive: [1] -0.15 | [2] -0.213 | [3] 0.011 | [4] -0.073 | [5] 0.019

RPLP0 (UniProt P05388)
inactive: [1] 0.009 | [2] 0.038 | [3] 0 | [4] -0.014 | [5] 0.023

RTF1 (UniProt Q92541)
inactive: [1] -0.004 | [2] 0.006 | [3] 0.015 | [4] -0.017 | [5] 0.021

RPUSD4 (UniProt Q96CM3)
inactive: [1] -0.004 | [2] 0.018 | [3] 0.005 | [4] -0.054 | [5] 0.011

RPLP0P6 (UniProt Q8NHW5)
inactive: [1] 0.052 | [2] -0.038 | [3] -0.002 | [4] -0.026 | [5] -0.027

RPS2 (UniProt P15880)
inactive: [1] 0.003 | [2] 0.025 | [3] -0.014 | [4] 0.028 | [5] 0.016

RPN1 (UniProt P04843)
inactive: [1] -0.025 | [2] 0.016 | [3] 0.028 | [4] -0.021 | [5] 0

RRBP1 (UniProt Q9P2E9)
inactive: [1] -0.037 | [2] -0.001 | [3] 0.014 | [4] 0.003 | [5] 0.027

RTF2 (UniProt Q9BY42)
inactive: [1] 0.052 | [2] 0.021 | [3] 0.127 | [4] 0.007 | [5] -0.041

RSBN1 (UniProt Q5VWQ0)
inactive: [1] 0.081 | [2] -0.027 | [3] -0.043 | [4] 0.002 | [5] -0.022

RUVBL1 (UniProt Q9Y265)
inactive: [1] 0 | [2] 0.014 | [3] 0.013 | [4] 0.006 | [5] 0.031

Fetched one by one from the list above, two records:
RUVBL1 (UniProt Q9Y265)
inactive: [1] 0 | [2] 0.014 | [3] 0.013 | [4] 0.006 | [5] 0.031

RSBN1 (UniProt Q5VWQ0)
inactive: [1] 0.081 | [2] -0.027 | [3] -0.043 | [4] 0.002 | [5] -0.022

Further entries follow:

RPS27A (UniProt P62979)
inactive: [1] 0.131 | [2] -0.152 | [3] 0.038 | [4] -0.058 | [5] 0.035

RRM2B isoform 6 (UniProt Q7LG56)
inactive: [1] 0.054 | [2] -0.003 | [3] -0.02 | [4] -0.009 | [5] -0.04

RSRC1 (UniProt Q96IZ7)
inactive: [1] -0.009 | [2] 0.004 | [3] 0.032 | [4] 0.008 | [5] 0.015

RUFY1 (UniProt Q96T51)
inactive: [1] 0.014 | [2] -0.012 | [3] -0.024 | [4] -0.05 | [5] -0.009

RPS15 (UniProt P62841)
inactive: [1] 0.026 | [2] 0.037 | [3] -0.004 | [4] -0.017 | [5] -0.07

RPS25 (UniProt P62851)
inactive: [1] -0.023 | [2] 0.025 | [3] -0.001 | [4] 0.017 | [5] 0.003

RPL4 (UniProt P36578)
inactive: [1] 0.043 | [2] 0.009 | [3] 0.016 | [4] 0.018 | [5] 0.029

RPLP2 (UniProt P05387)
inactive: [1] 0.017 | [2] -0.059 | [3] -0.017 | [4] -0.026 | [5] 0.023

RPLP1 (UniProt P05386)
inactive: [1] 0.024 | [2] -0.01 | [3] -0.039 | [4] -0.008 | [5] -0.007

RPP30 isoform 2 (UniProt P78346)
inactive: [1] 0.06 | [2] -0.034 | [3] -0.022 | [4] 0.008 | [5] -0.034

RTN2 (UniProt O75298)
inactive: [1] -0.133 | [2] 0.065 | [3] -0.001 | [4] 0.004 | [5] -0.008

RPS19 (UniProt P39019)
inactive: [1] -0.024 | [2] 0.017 | [3] -0.037 | [4] 0.044 | [5] 0.026

RPL39P5 (UniProt Q59GN2)
inactive: [1] 0.018 | [2] -0.061 | [3] -0.077 | [4] -0.046 | [5] -0.029

Taken from above (2 entries):
RTN2 (UniProt O75298)
inactive: [1] -0.133 | [2] 0.065 | [3] -0.001 | [4] 0.004 | [5] -0.008

RPS19 (UniProt P39019)
inactive: [1] -0.024 | [2] 0.017 | [3] -0.037 | [4] 0.044 | [5] 0.026

Next results follow.

RYBP (UniProt Q8N488)
inactive: [1] 0.119 | [2] -0.026 | [3] -0.023 | [4] -0.021 | [5] -0.133

RRP15 (UniProt Q9Y3B9)
inactive: [1] 0.087 | [2] 0.003 | [3] 0.038 | [4] 0.006 | [5] 0.01

RPS28 (UniProt P62857)
inactive: [1] 0.132 | [2] -0.123 | [3] 0.007 | [4] -0.039 | [5] -0.035

RRAGB (UniProt Q5VZM2)
inactive: [1] 0.083 | [2] 0.003 | [3] -0.037 | [4] -0.062 | [5] 0.013

RPP25L (UniProt Q8N5L8)
inactive: [1] 0.097 | [2] 0.002 | [3] 0.046 | [4] 0.088 | [5] -0.012

RPS4X (UniProt P62701)
inactive: [1] 0.02 | [2] 0.029 | [3] -0.009 | [4] 0.044 | [5] 0.066

RPS24 isoform 4 (UniProt P62847)
inactive: [1] 0.04 | [2] -0.005 | [3] 0.009 | [4] -0.043 | [5] 0.021

RPL37A (UniProt P61513)
inactive: [1] -0.009 | [2] 0 | [3] -0.031 | [4] 0.191 | [5] 0.166

RTCA (UniProt O00442)
inactive: [1] 0.034 | [2] 0.028 | [3] -0.01 | [4] 0.026 | [5] -0.014

RRM2 isoform 2 (UniProt P31350)
inactive: [1] 0.088 | [2] 0.022 | [3] -0.029 | [4] 0.069 | [5] 0.044

RPS6KA1 (UniProt Q15418)
inactive: [1] -0.073 | [2] -0.064 | [3] -0.045 | [4] 0.015 | [5] -0.047
